Test results from US9958434B2, “Fluorescent probe sensing tyrosine kinase and use thereof” (POSTECH ACADEMY-INDUSTRY FOUNDATION, priority 2013, dated 2018).
At least one read-out could not be matched to a standard name with certainty.

Target: six kinase enzymes (ABL1 (T315I), BRAF, PDGFRa, RSK2, TYK2, Src)
Assay: Kinase activity inhibition screening (Reaction Biology Corp.)
Type: biochemical
Settings: IC50 numbers only in FIG. 4

## CN(C)c1ccc2cc(C=O)c(O)cc2c1 [compound 1, 6-(dimethylamino)-3-hydroxyl-2-naphthaldehyde]
  enzymatic activity (IC50 experiment): decrease in enzymatic activity
